Assay results: paper PMC5680916
These are yes or no findings as the source states them, for the method shown. Binding seen in cells or lysates may run through a third protein. Some results given as binding are weak or reduced against the parent protein; the word gives no strength.

The chains behind the UniProt entries cited, without tags or fusion partners.
UniProt P01106: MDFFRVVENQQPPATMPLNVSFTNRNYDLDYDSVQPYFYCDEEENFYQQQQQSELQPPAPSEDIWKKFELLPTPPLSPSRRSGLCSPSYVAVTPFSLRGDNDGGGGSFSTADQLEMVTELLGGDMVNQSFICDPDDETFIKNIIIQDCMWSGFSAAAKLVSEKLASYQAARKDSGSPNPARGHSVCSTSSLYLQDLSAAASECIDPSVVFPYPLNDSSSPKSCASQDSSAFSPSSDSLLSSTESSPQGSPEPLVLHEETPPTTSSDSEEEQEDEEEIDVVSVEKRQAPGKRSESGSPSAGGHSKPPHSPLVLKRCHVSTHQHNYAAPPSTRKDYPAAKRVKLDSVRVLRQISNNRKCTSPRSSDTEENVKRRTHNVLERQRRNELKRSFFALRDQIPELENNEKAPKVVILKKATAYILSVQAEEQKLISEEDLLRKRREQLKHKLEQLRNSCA

Target: Calreticulin (human (endogenous in Capan-2 and AsPC-1)) (UniProt P27797)
Experiment: co-IP; whole lysates of Capan-2 and AsPC-1 cells (20 mM Tris/HCl pH 7.4, 1.0% NP-40, 1 mM EDTA, 150 mM NaCl); CRT, c-Myc or IgG antibodies on magnetic beads, overnight at 4 °C; Western blot with CRT, c-Myc, Integrinβ1, Fibronectin and GAPDH antibodies

| binding | Substance |
| --- | --- |
| binds | Fibronectin (from UniProt P02751 32-2477) |
| binds | Integrinβ1 (from UniProt P05556 21-798) |
| binds | c-Myc (from UniProt P01106 1-454) |
